Here are results for 1 compound from US20120315281A1, “TREATMENT OF RENAL INJURY” (THE PENN STATE RESEARCH FOUNDATION, priority 2011, published 2012).

SMILES strings stand for the structures.

In series [1] the test system is Ins2^Akita and their wild type littermate mice. The series is described as follows: Characteristics of Ins2^Akita and wild type littermate mice (glucose, body weight, kidney weight, body composition) with or without arginase inhibitor. The series is classed as in vivo, mouse. To be noted: 14-week of age, mean ± SEM; for Body Weight / Fat / Fluid / Lean: BEC 2.3 mg/kg/day 9 weeks; for Glucose: BEC 2.3 mg/kg/day via osmotic minipump 9 weeks; for Fat / Fluid / Lean: body composition. The method, then: (§1) Experiments were conducted in male Ins2^Akita and their wild type (WT) littermate mice (DBA background; Jackson Laboratories) starting at 5 weeks of age until 14 weeks of age and were approved by the Pennsylvania State University College of Medicine Institutional Animal Care and Use Committee (PSU IACUC). The Ins2^Akita mice were recommended by the Animal Models of Diabetes Complications Consortium as an optimal model of diabetic nephropathy, and the mice developed hyperglycemia at 3 weeks of age. Additional experiments were conducted in male 6-week-old mice (DBA background; Jackson Laboratories), arginase-2 (Arg2) wild type […] mice on C57B1/6 background weighing 20-22 g and were approved by the PSU IACUC. After an overnight fast, animals were given multiple low doses of vehicle or STZ (Sigma, St. Louis, Mo.; 50 mg/kg body wt dissolved in lactated Ringers solution) via intraperitoneal injection.
BEC, a selective arginase antagonist (2.3 mg/kg/day, Cayman Chemical, Ann Arbor, Mich., USA), or vehicle (phosphate-buffered saline) was administered by continuous subcutaneous infusion for 9 weeks (in Ins2^Akita experiments) or for 6 wks (in STZ DBA mice experiments) via a mini-osmotic pump (Alzet; Durect Corporation, Palo Alto, Calif., USA) as described in CIRCULATION RESEARCH, 102(8):923-32, Apr. 25, 2008. The osmotic pump was incubated in phosphate buffer saline (PBS) for 60-h at 37° C. prior to implantation and was implanted dorsally between shoulders. The condition of mice and body weight were monitored daily following the pump implantation.
Urinary albumin excretion (UAE) was measured by ELISA using Albuwell M (Exocell, Philadelphia, Pa.) as described previously. Blood urea nitrogen (BUN) was measured using (VITROS DT60II chemistry slides; Ortho-Clinical Diagnostics, Rochester, N.Y.). Body composition was determined using LF90 Minispec Time Domain Nuclear Magnetic Resonance Spectrometer (Bruker Optics, Billerica Mass.).
To assess the possible clinical significance of arginases in diabetic mice, the arginase-specific inhibitor BEC (2.3 mg/kg/day) was infused continuously as previously described or vehicle into Ins2^Akita mice and their wild-type littermates (DBA-background) for 9 weeks beginning at 5 weeks of age. […] There were no significant changes in systolic blood pressure (SBP) between all groups although there was a trend toward increased SBP in the Ins2^Akita groups.

Series [2] has the same test system. The series can be described thus: Systolic blood pressure (Coda) in Ins2^Akita and wild type littermate mice. In kind it is in vivo, mouse. As to conditions: BEC 2.3 mg/kg/day 9 weeks, 14-week of age, mean ± SEM. How it is done: as §1, with “After an overnight fast, animals were given multiple low doses of vehicle or STZ (Sigma, St. Louis, Mo.; 50 mg/kg body wt dissolved in lactated Ringers solution) via intraperitoneal injection.” left out
BEC, a selective arginase antagonist (2.3 mg/kg/day, Cayman Chemical, Ann Arbor, Mich., USA), or vehicle (phosphate-buffered saline) was administered by continuous subcutaneous infusion for 9 weeks (in Ins2^Akita experiments) or for 6 wks (in STZ DBA mice experiments) via a mini-osmotic pump (Alzet; Durect Corporation, Palo Alto, Calif., USA) as described in CIRCULATION RESEARCH, 102(8):923-32, Apr. […] The condition of mice and body weight were monitored daily following the pump implantation.
Systolic blood pressure was measured using Coda blood pressure (Kent Scientific Corp, Torrington, Conn.). […]

[3] abbreviates: control (wild type littermate) mice.

Regarding `N[C@@H](CSCCB(O)O)C(=O)O` [BEC, S-(2-Boronoethyl)-L-cysteine], in series [1] (Ins2^Akita mice), the “Body Weight” value is 27 ± 1^++ g, the Glucose was 441 ± 17^+++ mg/dl, the Fat is 6.7 ± 0.6^+++ % and the Fluid was 6.4 ± 0.1^+ %. In addition, the Lean in series [1] (Ins2^Akita mice) was determined as 67.6 ± 1.2%. In series [1] (setting [3]), the Fat is 12.4 ± 0.9%, the Fluid was determined as 7.9 ± 0.1%, the Lean was 66.3 ± 0.5% and the “Body Weight” value is 32 ± 1 g. For the same compound, the Glucose in series [1] (setting [3]) was determined as 142 ± 7 mg/dL. In addition, in series [2] (Ins2^Akita mice), the “Systolic BP” value is listed as 134 ± 2 mmHg. In series [2] (setting [3]), the “Systolic BP” value turned out to be 118 ± 10 mmHg.
